Values quoted from earlier work in US5874464A, “Conformationally constrained diacylglycerol analogues” (The United States of America as represented by the …, priority 1995, dated 1999).

Tested on: tumor graft proliferation
Conditions: mouse model; cited from earlier work

## CN[C@@H]1C[C@H]2O[C@@](C)([C@@H]1OC)n1c3ccccc3c3c4c(c5c6ccccc6n2c5c31)C(=O)NC4 [Staurosporine]
  inhibition of tumor graft proliferation: potent inhibitor of tumor graft proliferation
